Measured values from US7795249B2, “Certain pyrazoline derivatives with kinase inhibitory activity” (Millennium Pharmaceuticals, Inc., priority 2006, dated 2010).
Some entries share one result that the patent states for a list of compounds.

Sequences of proteins named here, by UniProt entry; tags and fusion partners are left off.
UniProt P15056, whole entry, stated change not applied: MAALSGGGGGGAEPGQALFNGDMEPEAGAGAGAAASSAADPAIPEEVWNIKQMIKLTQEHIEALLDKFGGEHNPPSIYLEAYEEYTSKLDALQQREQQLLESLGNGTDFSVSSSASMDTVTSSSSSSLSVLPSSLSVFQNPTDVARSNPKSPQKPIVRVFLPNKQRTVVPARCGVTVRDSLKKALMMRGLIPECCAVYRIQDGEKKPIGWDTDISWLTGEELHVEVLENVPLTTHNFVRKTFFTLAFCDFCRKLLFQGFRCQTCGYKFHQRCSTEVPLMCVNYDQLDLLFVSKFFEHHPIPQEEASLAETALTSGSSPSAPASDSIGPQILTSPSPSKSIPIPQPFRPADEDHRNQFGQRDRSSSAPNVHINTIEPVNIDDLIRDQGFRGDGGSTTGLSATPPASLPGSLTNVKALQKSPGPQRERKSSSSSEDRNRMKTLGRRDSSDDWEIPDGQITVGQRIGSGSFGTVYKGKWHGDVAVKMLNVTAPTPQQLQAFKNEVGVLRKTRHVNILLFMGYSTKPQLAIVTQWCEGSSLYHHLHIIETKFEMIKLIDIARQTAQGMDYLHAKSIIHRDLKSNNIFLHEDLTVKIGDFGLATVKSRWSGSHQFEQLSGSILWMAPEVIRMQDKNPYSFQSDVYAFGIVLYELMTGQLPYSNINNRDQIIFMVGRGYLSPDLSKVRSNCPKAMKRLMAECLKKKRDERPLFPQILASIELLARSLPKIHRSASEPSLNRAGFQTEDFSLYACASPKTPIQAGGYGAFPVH

Target: T1, B-Raf (V599E or Wild Type) (Homo sapiens, UniProt P15056)
T1 construct: Enzymatically active wild-type B-Raf was purchased from Upstate (cat#14-530); Enzymatically active mutant B-Raf(V599E) was purified in house; fused on or other part: None is printed; By knowledge, Upstate 14-530 is an N-terminally GST-tagged truncated human B-Raf; the tag is not part of the key
Assay: B-Raf Flash Plate Assay
Type: biochemical
Details: bin: less than or equal to 100 nM

Compound	IC50 [nM]
O=C(c1ccc(C#Cc2ccccn2)s1)N1N=C(c2cccnc2)CC1c1ccccc1O (centres unmarked) [Compound I-153, 2-(3-pyridin-3-yl-1-{[5-(.yridine-2-ylethynyl)-2-thienyl]carbonyl}-4,5-dihydro-1H-pyrazol-5-yl)phenol]	≤ 100
O=C(c1ccc(CN2CCOCC2)o1)N1N=C(c2cccnc2)CC1c1ccccc1O (centres unmarked) [Compound I-49, 2-{1-[5-(morpholin-4-ylmethyl)-2-furoyl]-3-pyridin-3-yl-4,5-dihydro-1H-pyrazol-5-yl}phenol]	≤ 100
N#Cc1ccccc1-n1cc(C(=O)N2N=C(c3cccnc3)CC2c2ccccc2O)cn1 (centres unmarked) [Compound I-58, 2-(4-{[5-(2-hydroxyphenyl)-3-pyridin-3-yl-4,5-dihydro-1H-pyrazol-1-yl]carbonyl}-1H-pyrazol-1-yl)benzonitrile]	≤ 100
O=C(Nc1ccc(S(=O)(=O)Nc2nccs2)cc1)N1N=C(c2cccnc2)CC1c1ccccc1O (centres unmarked) [Compound I-322, 5-(2-hydroxyphenyl)-3-pyridin-3-yl-N-{4-[(1,3-thiazol-2-ylamino)sulfonyl]phenyl}-4,5-dihydro-1H-pyrazole-1-carboxamide]	≤ 100
COc1cccc(-c2ccc(C(=O)N3N=C(c4cccnc4)CC3c3ccccc3O)o2)c1 (centres unmarked) [Compound I-162, 2-{1-[5-(3-methoxyphenyl)-2-furoyl]-3-pyridin-3-yl-4,5-dihydro-1H-pyrazol-5-yl}phenol]	≤ 100
Cc1ccc(-c2ccc(C(=O)N3N=C(c4cccnc4)CC3c3ccccc3O)s2)cc1 (centres unmarked) [Compound I-175, 2-(1-{[5-(4-methylphenyl)-2-thienyl]carbonyl}-3-pyridin-3-yl-4,5-dihydro-1H-pyrazol-5-yl)phenol]	≤ 100
Cc1oc(S(=O)(=O)N2CCCCC2)cc1C(=O)N1N=C(c2cccnc2)CC1c1ccccc1O (centres unmarked) [Compound I-44, 2-{1-[2-methyl-5-(piperidin-1-ylsulfonyl)-3-furoyl]-3-pyridin-3-yl-4,5-dihydro-1H-pyrazol-5-yl}phenol]	≤ 100
NCc1ccccc1-c1nc(C(=O)N2N=C(c3cccnc3)CC2c2ccccc2O)cs1 (centres unmarked) [Compound I-378, 2-[1-({2-[2-(aminomethyl)phenyl]-1,3-thiazol-4-yl}carbonyl)-3-pyridin-3-yl-4,5-dihydro-1H-pyrazol-5-yl]phenol]	≤ 100
Cc1ccccc1Oc1ccccc1NC(=O)N1N=C(c2cccnc2)CC1c1ccccc1O (centres unmarked) [Compound I-359, 5-(2-hydroxyphenyl)-N-[2-(2-methylphenoxy)phenyl]-3-pyridin-3-yl-4,5-dihydro-1H-pyrazole-1-carboxamide]	≤ 100
O=C(c1ccc(-c2ccccc2)[nH]1)N1N=C(c2cccnc2)CC1c1ccccc1O (centres unmarked) [Compound 1-103, 2-{1-[(5-phenyl-1H-pyrrol-2-yl)carbonyl]-3-pyridin-3-yl-4,5-dihydro-1H-pyrazol-5-yl}phenol]	≤ 100
COc1ccc(C(=O)N2N=C(c3cccnc3)CC2c2ccccc2O)cc1OCc1ccccc1 (centres unmarked) [Compound I-24, 2-{1-[3-(benzyloxy)-4-methoxybenzoyl]-3-pyridin-3-yl-4,5-dihydro-1H-pyrazol-5-yl}phenol]	≤ 100
N#Cc1ccc(-c2ccc(C(=O)N3N=C(c4cccnc4)CC3c3ccccc3O)s2)cc1 (centres unmarked) [Compound I-135, 4-(5-{[5-(2-hydroxyphenyl)-3-pyridin-3-yl-4,5-dihydro-1H-pyrazol-1-yl]carbonyl}-2-thienyl)benzonitrile]	≤ 100
O=C(N[C@@H]1CCC[C@H]1OCc1ccccc1)N1N=C(c2cccnc2)CC1c1ccccc1O (stereo partly drawn) [Compound I-361, N-[(1R,2R)-2-(benzyloxy)cyclopentyl]-5-(2-hydroxyphenyl)-3-pyridin-3-yl-4,5-dihydro-1H-pyrazole-1-carboxamide]	≤ 100
NCc1cc(F)ccc1-c1ccc(C(=O)N2N=C(c3cccnc3)CC2c2ccccc2O)s1 (centres unmarked) [Compound I-241, 2-[1-({5-[2-(aminomethyl)-4-fluorophenyl]-2-thienyl}carbonyl)-3-pyridin-3-yl-4,5-dihydro-1H-pyrazol-5-yl]phenol]	≤ 100
O=C(Nc1cccnc1Oc1ccc(F)cc1F)N1N=C(c2cccnc2)CC1c1ccccc1O (centres unmarked) [Compound I-277, N-[2-(2,4-difluorophenoxy)pyridin-3-yl]-5-(2-hydroxyphenyl)-3-pyridin-3-yl-4,5-dihydro-1H-pyrazole-1-carboxamide]	≤ 100
O=C(Nc1ccccc1-c1ccccc1)N1N=C(c2cccnc2)CC1c1ccccc1O (centres unmarked) [Compound I-149, N-biphenyl-2-yl-5-(2-hydroxyphenyl)-3-pyridin-3-yl-4,5-dihydro-1H-pyrazole-1-carboxamide]	≤ 100
N#Cc1ccccc1Sc1ccccc1NC(=O)N1N=C(c2cccnc2)CC1c1ccccc1O (centres unmarked) [Compound I-352, N-{2-[(2-cyanophenyl)sulfanyl]phenyl}-5-(2-hydroxyphenyl)-3-pyridin-3-yl-4,5-dihydro-1H-pyrazole-1-carboxamide]	≤ 100

Now from value to compound:

IC50 [nM]	Compound
≤ 100	NCc1ccccc1-c1ccc(C(=O)N2N=C(c3ccc(N)nc3)CC2c2ccccc2O)s1 (centres unmarked) [Compound I-202, 2-[1-({5-[2-(aminomethyl)phenyl]-2-thienyl}carbonyl)-3-(6-aminopyridin-3-yl)-4,5-dihydro-1H-pyrazol-5-yl]phenol]
≤ 100	COc1ccc(-c2cc(C(=O)N3N=C(c4cccnc4)CC3c3ccccc3O)no2)cc1OC (centres unmarked) [Compound 1-30, 2-(1-{[5-(3,4-dimethoxyphenyl)isoxazol-3-yl]carbonyl}-3-pyridin-3-yl-4,5-dihydro-1H-pyrazol-5-yl)phenol]
≤ 100	COc1ccc(-c2ccc(C(=O)N3N=C(c4cccnc4)CC3c3ccccc3O)s2)c(CN)c1 (centres unmarked) [Compound I-244, 2-[1-({5-[2-(aminomethyl)-4-methoxyphenyl]-2-thienyl}carbonyl)-3-pyridin-3-yl-4,5-dihydro-1H-pyrazole-5-yl]phenol]
≤ 100	O=C(c1ccc(-c2cccc3c2CCNC3)s1)N1N=C(c2cccnc2)CC1c1c(O)cccc1F (centres unmarked) [Compound I-283, 3-fluoro-2-(3-pyridin-3-yl-1-{[5-(1,2,3,4-tetrahydroisoquinolin-5-yl)-2-thienyl]carbonyl}-4,5-dihydro-1H-pyrazol-5-yl)phenol]
≤ 100	CN(C)c1ccc(-c2ccc(C(=O)N3N=C(c4cccnc4)CC3c3c(O)cccc3F)s2)c(CN)c1 (centres unmarked) [Compound 1-318]
≤ 100	Cn1cc(-c2ccc(C(=O)N3N=C(c4cccnc4)CC3c3c(O)cccc3F)s2)cn1 (centres unmarked) [Compound I-246, 3-fluoro-2-(1-{[5-(1-methyl-1H-pyrazol-4-yl)-2-thienyl]carbonyl}-3-pyridin-3-yl-4,5-dihydro-1H-pyrazol-5-yl)phenol]
≤ 100	O=C(c1ccc(-c2ccccc2F)o1)N1N=C(c2cccnc2)CC1c1ccccc1O (centres unmarked) [Compound I-29, 2-{1-[5-(2-fluorophenyl)-2-furoyl]-3-pyridin-3-yl-4,5-dihydro-1H-pyrazol-5-yl}phenol]
≤ 100	O=C(c1ccc(-c2ccc3c(c2)CNCC3)s1)N1N=C(c2cccnc2)CC1c1ccccc1O (centres unmarked) [Compound I-377, 2-(3-pyridin-3-yl-1-{[5-(1,2,3,4-tetrahydroisoquinolin-7-yl)-2-thienyl)carbonyl}-4,5-dihydro-1H-pyrazol-5-yl)phenol]
≤ 100	O=C(c1cc(-c2ccccc2)no1)N1N=C(c2cccnc2)CC1c1ccccc1O (centres unmarked) [Compound I-186, 2-{1-[(3-phenylisoxazol-5-yl)carbonyl]-3-pyridin-3-yl-4,5-dihydro-1H-pyrazol-5-yl}phenol]
